Source: PMC5633884
No constants are given. Whether binding was seen depends on the method and setting. Binding seen in cells or lysates may run through a third protein. Some entries that bind do so weakly or less than the wild type.

Columns and labels:
[1] = biological target: KIBRA (human (endogenous in PNT1B, PC3 and DU145)), Q8IX03; test: co-IP; membranous and cytoplasmic protein extracts taken apart; PC3-con, PC3-shPar3 (stable Par3 knockdown) and PC3-Par3OE (Par3 overexpression) cells; western blot; conditions: remark: other sources report otherwise
[2] = biological target: KIBRA (human (endogenous in PNT1B, PC3 and DU145)), Q8IX03; test: co-IP; endogenous proteins; PNT1B, PC3 and DU145 cells lysed with RIPA; 100 ug total protein with 5 ug specific antibody and 40 ul protein G-sepharose beads on ice overnight; washed three times with chilled PBS; western blot; conditions: remark: other sources report otherwise

B1: FRMD6, Q96NE9 1-622 (protein)
chain: MNKLNFHNNRVMQDRRSVCIFLPNDESLNIIINVKILCHQLLVQVCDLLRLKDCHLFGLSVIQNNEHVYMELSQKLYKYCPKEWKKEASKVRQYEVTWGIDQFGPPMIIHFRVQYYVENGRLISDRAARYYYYWHLRKQVLHSQCVLREEAYFLLAAFALQADLGNFKRNKHYGKYFEPEAYFPSWVVSKRGKDYILKHIPNMHKDQFALTASEAHLKYIKEAVRLDDVAVHYYRLYKDKREIEASLTLGLTMRGIQIFQNLDEEKQLLYDFPWTNVGKLVFVGKKFEILPDGLPSARKLIYYTGCPMRSRHLLQLLSNSHRLYMNLQPVLRHIRKLEENEEKKQYRESYISDNLDLDMDQLEKRSRASGSSAGSMKHKRLSRHSTASHSSSHTSGIEADTKPRDTGPEDSYSSSAIHRKLKTCSSMTSHGSSHTSGVESGGKDRLEEDLQDDEIEMLVDDPRDLEQMNEESLEVSPDMCIYITEDMLMSRKLNGHSGLIVKEIGSSTSSSSETVVKLRGQSTDSLPQTICRKPKTSTDRHSLSLDDIRLYQKDFLRIAGLCQDTAQSYTFGCGHELDEEGLYCNSCLAQQCINIQDAFPVKRTSKYFSLDLTHDEVPEFVV
binding [1]: binds | binding [2]: binds
